According to US9545412B2, “Composition and methods used during anti-HIV treatment” (UNIVERSITE D'AIX-MARSEILLE, priority 2008, dated 2017):
At least one structure is not confirmed: it was looked up by name or label, or the drawing left a doubt.

Test system: Zmpste24^−/− mice
Assay: Progeroid phenotype and lifespan of Zmpste24^−/− mice (Example 7)
Assay type: in vivo, mouse
Conditions: daily treatment with one drug alone
Protocol: All of the experiments on mice are governed by the rules set down by the Animal Experiment Committee of the University of Oviedo (Spain). The pravastatin (100 mg/kg/day) and the zoledronate (100 mg/kg/day) diluted in PBS are administered to the mice every day.

CC[C@H](C)C(=O)O[C@H]1C[C@H](O)C=C2C=C[C@H](C)[C@H](CC[C@@H](O)C[C@@H](O)CC(=O)O)[C@H]21 [pravastatin]
lifespan of Zmpste24^−/− mice, drug in isolation: neither of the drugs in isolation, pravastatin or zoledronate, increases the lifespan
